The record followed here is the supplement of paper PMC11348887.

Where a name gives a salt, the structure may show the parent alone. This is one part of the list. Most values lie at the level of the controls, where differences are scatter.

One test concerns hPSC-derived cortical neurons (WA09). As to the kind of experiment: total neurite length per nucleus (MAP2) z-score; higher = more neurite growth. Conditions: 5 µM; treatment: days 7-14 after plating, readout day 21.
Take `CC(=O)Oc1cc(C(F)(F)F)ccc1C(=O)O` [Triflusal]: the “total neurite length per nucleus (z-score)” value is 0.0742. For `COc1cc(-c2ncn(/C=C\C(=O)OC(C)C)n2)cc(C(F)(F)F)c1`, the “total neurite length per nucleus (z-score)” value was -0.54. Same read-out and setting: to `CCCc1cc(C(N)=S)ccn1` [Protionamide] belongs -0.278. For `O=S(=O)(O)NC1CCCCC1` [Cyclamic  acid], the “total neurite length per nucleus (z-score)” value was -0.963. Consider `CCN(CCCOc1ccc2c(Nc3cc(CC(=O)Nc4cccc(F)c4)[nH]n3)ncnc2c1)CCOP(=O)(O)O` [Barasertib (AZD1152-HQPA)], for which the “total neurite length per nucleus (z-score)” value was found to be 0.477. Still for that read-out and setting: as for `CC(C)(C)OC(=O)Nc1ccc(-c2cc(C(=O)NCCCCCCC(=O)NO)no2)cc1`, the figure is -2.03; as for `O=C(O)CCC(=O)Nc1ccc(S(=O)(=O)Nc2nccs2)cc1` [Succinylsulfathiazole], 0.409. In the case of `CCCS(=O)(=O)Nc1ccc(F)c(C(=O)c2c[nH]c3ncc(-c4ccc(Cl)cc4)cc23)c1F` [Vemurafenib (PLX4032_ RG7204)], the “total neurite length per nucleus (z-score)” value was -0.169.

For another test the test system is unchanged. As to the kind of experiment: nucleus roundness z-score vs screen plate; higher = rounder nuclei (more mature). Conditions: 5 µM; treatment: days 7-14 after plating, readout day 21.
`CN1CCC(COc2cnc(-c3cccc(Cn4nc(-c5cccc(C#N)c5)ccc4=O)c3)nc2)CC1` returned a nucleus roundness z-score of 0.377.

Regarding `CNC(=O)c1ccc(N2C(=S)N(c3cnc(C#N)c(C(F)(F)F)c3)C(=O)C23CCC3)cc1F`, the nucleus roundness z-score was 0.225. `C[C@]12C=CC(=O)C=C1CC[C@@H]1[C@@H]2[C@@H](O)C[C@@]2(C)[C@H]1CC[C@]2(O)C(=O)CO` [Prednisolone]: the nucleus roundness z-score was determined as 0.115. Still for that read-out and setting: to `Oc1c(I)cc(I)c2cccnc12` [Diiodohydroxyquinoline] belongs 0.539; to `C=C1C[C@@]2(O)O[C@@]3(C[C@H]2C(C)C)[C@@H](C)CC[C@@H]13` [Curcumol], -0.0886.

For `O=C(c1ccccc1)c1ccc2n1CCC2C(=O)O` (stereo not drawn) [Ketorolac], the nucleus roundness z-score was 0.485. Take `COC(=O)CC[C@H](NC(=O)[C@H](CC(=O)OC)NC(=O)OCc1ccccc1)C(=O)N[C@H](C(=O)N[C@@H](CC(=O)OC)C(=O)CF)C(C)C`: the nucleus roundness z-score was found to be 1.2. As for `O=C(c1cccc(Cl)c1F)N1CCN(Cc2cccc(Nc3nccs3)n2)CC1`, the nucleus roundness z-score turned out to be 0.461. In turn, `CNC(=O)[C@H](Cc1ccccc1)NC(=O)[C@H](CC(C)C)[C@H](CSc1cccs1)C(=O)NO` [Batimastat (BB-94)] came in with a nucleus roundness z-score of -1.18. Compound `C[C@H](CCC(=O)O)[C@H]1CC[C@H]2[C@@H]3CC[C@@H]4C[C@H](O)CC[C@]4(C)[C@H]3C[C@H](O)[C@]12C` [Deoxycholic acid] had a nucleus roundness z-score of 0.133.

In the case of `CCCC(=O)O[C@]1(C(=O)COC(C)=O)CC[C@H]2[C@@H]3C[C@H](F)C4=CC(=O)C=C[C@]4(C)[C@@]3(F)[C@@H](O)C[C@@]21C` [Difluprednate], the nucleus roundness z-score was -0.378. Take `CNc1nc(Nc2cn(C(C)(C)C#N)nc2C)ncc1C(F)(F)F`: the nucleus roundness z-score was -0.328. On the same count and under the same terms, as for `CC[C@H](C)[C@@H]1NC(=O)[C@H](Cc2ccc(O)cc2)NC(=O)[C@@H](N)CSSC[C@@H](C(=O)N2CCC[C@H]2C(=O)N[C@@H](CC(C)C)C(=O)NCC(N)=O)NC(=O)[C@H](CC(N)=O)NC(=O)[C@H](CCC(N)=O)NC1=O` [Oxytocin (Syntocinon)], the figure is -0.262. As for `CN(Cc1cnc2nc(N)nc(N)c2n1)c1ccc(C(=O)N[C@@H](CCC(=O)O)C(=O)O)cc1` [Methotrexate], the nucleus roundness z-score is -0.373. For the compound `O=C(/C=C\n1cnc(-c2cc(C(F)(F)F)cc(C(F)(F)F)c2)n1)NNc1ccccn1` [Verdinexor (KPT-335)], the nucleus roundness z-score is -5.91. In the case of `CCN1CCCC1CNC(=O)c1cc(S(=O)(=O)CC)c(N)cc1OC` (stereo not drawn) [Amisulpride], the nucleus roundness z-score turned out to be 0.333. On the same count and under the same terms, as for `CC(C)(C(=O)NCC(F)(F)C(F)(F)F)C(=O)N[C@@H]1C(=O)Nc2ccccc2-c2ccccc21`, the figure is -0.0299; as for `CC1CC(OC(=O)C(O)c2ccccc2)CC(C)(C)C1` (stereo not drawn) [Cyclandelate], 0.129. Still for that read-out and setting: as for `CCc1c(C(=O)NCCc2ccc(N3CCCCC3)cc2)[nH]c2ccc(Cl)cc12`, the figure is 0.399; as for `COc1ncc(-c2ccc3nccc(-c4ccnnc4)c3c2)cc1NS(=O)(=O)c1ccc(F)cc1F`, -5.63; as for `NCc1c[nH]c(=S)n1[C@H]1CCc2c(F)cc(F)cc2C1` [Nepicastat (SYN-117) HCl], -0.97.

`Cc1cc(/N=N/c2ccc(S(=O)(=O)Nc3ccccn3)cc2)c(N)cc1O` yielded a nucleus roundness z-score of -0.237.

Compound `CC1=C(CC(=O)O)c2cc(F)ccc2/C1=C\c1ccc([S+](C)[O-])cc1` (stereo not drawn) [Sulindac] had a nucleus roundness z-score of 1.15.

In the case of `CC1(C)S[C@@H]2[C@H](NC(=O)[C@H](N)c3ccc(O)cc3)C(=O)N2[C@H]1C(=O)O` [Amoxicillin], the nucleus roundness z-score turned out to be 1.13. `COc1ccc(C(=O)c2ccccc2O)c(O)c1` [2,2_-Dihydroxy-4-methoxybenzophenone] showed a nucleus roundness z-score of 0.859.
